Source: the supplement of paper PMC10849652
The other results are listed elsewhere or left out.

Protein sequences, listed by entry. Tags and fused reporters are not part of them. Lines headed by an entry give the natural chain unless they say otherwise; changes in a name come on top.
UniProt Q13485: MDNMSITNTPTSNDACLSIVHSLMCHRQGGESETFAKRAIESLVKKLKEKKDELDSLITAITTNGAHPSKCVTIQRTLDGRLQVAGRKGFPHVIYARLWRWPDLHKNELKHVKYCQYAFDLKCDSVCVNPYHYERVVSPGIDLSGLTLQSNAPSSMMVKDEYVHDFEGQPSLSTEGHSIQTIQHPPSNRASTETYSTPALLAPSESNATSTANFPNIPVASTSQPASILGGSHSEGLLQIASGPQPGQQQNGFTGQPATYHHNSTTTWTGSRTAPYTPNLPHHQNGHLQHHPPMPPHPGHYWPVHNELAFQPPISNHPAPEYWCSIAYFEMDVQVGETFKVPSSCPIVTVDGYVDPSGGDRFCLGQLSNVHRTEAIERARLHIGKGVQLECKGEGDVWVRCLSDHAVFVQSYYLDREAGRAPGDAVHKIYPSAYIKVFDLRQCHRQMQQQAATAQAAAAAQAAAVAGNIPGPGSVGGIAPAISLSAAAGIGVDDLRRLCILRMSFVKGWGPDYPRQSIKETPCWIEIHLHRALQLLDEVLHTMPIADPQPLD
UniProt P62304, whole entry, looked up: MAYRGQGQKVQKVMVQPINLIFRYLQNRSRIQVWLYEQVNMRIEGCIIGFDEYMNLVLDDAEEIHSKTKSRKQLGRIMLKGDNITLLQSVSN
UniProt Q13425: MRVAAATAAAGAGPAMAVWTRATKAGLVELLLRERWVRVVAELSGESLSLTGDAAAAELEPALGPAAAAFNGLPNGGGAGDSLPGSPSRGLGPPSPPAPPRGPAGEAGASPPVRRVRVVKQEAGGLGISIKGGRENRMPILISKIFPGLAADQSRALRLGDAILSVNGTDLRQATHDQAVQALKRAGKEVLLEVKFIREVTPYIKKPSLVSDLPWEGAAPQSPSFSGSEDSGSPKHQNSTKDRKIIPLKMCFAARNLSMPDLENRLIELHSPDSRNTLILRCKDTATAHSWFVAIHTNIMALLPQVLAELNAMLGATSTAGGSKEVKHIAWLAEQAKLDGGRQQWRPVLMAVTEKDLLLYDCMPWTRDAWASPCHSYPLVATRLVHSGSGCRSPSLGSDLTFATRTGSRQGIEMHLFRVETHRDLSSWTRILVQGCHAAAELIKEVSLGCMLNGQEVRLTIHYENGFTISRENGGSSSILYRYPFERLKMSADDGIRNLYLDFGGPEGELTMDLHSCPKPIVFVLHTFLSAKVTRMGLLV
UniProt Q8ND04: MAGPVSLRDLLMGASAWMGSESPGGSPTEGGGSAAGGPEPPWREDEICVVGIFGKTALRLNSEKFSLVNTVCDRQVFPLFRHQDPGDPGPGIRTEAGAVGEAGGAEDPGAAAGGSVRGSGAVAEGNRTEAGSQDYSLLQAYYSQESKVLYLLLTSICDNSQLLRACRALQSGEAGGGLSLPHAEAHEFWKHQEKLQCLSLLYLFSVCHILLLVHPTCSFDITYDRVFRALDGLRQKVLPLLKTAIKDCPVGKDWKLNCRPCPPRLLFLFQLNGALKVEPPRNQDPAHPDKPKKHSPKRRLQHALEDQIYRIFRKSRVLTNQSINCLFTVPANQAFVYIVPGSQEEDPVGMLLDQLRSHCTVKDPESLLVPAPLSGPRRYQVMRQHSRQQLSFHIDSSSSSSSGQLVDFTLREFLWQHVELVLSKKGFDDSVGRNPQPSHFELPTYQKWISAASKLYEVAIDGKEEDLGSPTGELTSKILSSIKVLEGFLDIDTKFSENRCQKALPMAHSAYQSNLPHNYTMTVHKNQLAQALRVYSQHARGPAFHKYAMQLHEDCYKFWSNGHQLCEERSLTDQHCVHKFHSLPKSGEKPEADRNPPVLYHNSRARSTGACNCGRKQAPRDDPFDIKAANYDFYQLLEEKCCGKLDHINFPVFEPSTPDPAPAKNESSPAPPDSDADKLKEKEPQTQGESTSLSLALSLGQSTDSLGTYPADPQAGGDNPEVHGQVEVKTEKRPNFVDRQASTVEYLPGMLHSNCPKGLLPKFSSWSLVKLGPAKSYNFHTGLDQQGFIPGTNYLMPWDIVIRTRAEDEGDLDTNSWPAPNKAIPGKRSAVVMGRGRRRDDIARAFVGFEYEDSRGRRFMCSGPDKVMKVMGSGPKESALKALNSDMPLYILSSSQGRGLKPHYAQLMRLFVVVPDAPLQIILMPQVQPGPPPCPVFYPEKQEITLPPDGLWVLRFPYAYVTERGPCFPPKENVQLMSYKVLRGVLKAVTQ
UniProt Q9UQE7: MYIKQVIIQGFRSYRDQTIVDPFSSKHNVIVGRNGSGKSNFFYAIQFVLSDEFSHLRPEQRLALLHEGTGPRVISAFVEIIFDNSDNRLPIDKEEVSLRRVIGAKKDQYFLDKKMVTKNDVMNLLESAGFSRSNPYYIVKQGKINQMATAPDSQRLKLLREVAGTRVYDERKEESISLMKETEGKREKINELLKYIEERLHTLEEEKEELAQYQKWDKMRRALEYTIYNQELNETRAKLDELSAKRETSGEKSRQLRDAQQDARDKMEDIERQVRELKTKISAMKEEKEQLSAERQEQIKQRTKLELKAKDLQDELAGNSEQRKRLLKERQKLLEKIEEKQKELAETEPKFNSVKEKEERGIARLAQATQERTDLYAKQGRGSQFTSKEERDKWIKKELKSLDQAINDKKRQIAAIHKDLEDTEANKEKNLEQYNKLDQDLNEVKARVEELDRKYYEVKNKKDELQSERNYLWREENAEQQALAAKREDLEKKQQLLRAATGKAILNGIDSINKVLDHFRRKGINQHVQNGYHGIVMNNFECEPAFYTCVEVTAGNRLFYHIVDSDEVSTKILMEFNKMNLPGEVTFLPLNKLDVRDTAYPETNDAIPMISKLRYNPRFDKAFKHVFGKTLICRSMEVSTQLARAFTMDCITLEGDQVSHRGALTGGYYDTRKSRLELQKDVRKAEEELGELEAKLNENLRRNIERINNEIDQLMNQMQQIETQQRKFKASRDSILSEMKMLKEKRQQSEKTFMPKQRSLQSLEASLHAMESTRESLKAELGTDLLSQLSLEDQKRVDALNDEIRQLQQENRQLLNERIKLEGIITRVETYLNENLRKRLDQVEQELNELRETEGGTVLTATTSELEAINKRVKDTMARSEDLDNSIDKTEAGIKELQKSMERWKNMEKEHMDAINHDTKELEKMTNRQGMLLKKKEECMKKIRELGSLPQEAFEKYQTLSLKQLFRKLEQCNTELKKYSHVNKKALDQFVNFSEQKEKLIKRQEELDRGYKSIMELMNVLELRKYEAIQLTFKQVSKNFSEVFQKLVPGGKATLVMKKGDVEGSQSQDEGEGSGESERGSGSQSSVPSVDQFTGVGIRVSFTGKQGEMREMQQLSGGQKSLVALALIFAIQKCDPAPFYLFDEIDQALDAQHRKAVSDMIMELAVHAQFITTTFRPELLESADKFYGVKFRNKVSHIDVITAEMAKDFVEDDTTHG
UniProt O95347, whole entry, looked up: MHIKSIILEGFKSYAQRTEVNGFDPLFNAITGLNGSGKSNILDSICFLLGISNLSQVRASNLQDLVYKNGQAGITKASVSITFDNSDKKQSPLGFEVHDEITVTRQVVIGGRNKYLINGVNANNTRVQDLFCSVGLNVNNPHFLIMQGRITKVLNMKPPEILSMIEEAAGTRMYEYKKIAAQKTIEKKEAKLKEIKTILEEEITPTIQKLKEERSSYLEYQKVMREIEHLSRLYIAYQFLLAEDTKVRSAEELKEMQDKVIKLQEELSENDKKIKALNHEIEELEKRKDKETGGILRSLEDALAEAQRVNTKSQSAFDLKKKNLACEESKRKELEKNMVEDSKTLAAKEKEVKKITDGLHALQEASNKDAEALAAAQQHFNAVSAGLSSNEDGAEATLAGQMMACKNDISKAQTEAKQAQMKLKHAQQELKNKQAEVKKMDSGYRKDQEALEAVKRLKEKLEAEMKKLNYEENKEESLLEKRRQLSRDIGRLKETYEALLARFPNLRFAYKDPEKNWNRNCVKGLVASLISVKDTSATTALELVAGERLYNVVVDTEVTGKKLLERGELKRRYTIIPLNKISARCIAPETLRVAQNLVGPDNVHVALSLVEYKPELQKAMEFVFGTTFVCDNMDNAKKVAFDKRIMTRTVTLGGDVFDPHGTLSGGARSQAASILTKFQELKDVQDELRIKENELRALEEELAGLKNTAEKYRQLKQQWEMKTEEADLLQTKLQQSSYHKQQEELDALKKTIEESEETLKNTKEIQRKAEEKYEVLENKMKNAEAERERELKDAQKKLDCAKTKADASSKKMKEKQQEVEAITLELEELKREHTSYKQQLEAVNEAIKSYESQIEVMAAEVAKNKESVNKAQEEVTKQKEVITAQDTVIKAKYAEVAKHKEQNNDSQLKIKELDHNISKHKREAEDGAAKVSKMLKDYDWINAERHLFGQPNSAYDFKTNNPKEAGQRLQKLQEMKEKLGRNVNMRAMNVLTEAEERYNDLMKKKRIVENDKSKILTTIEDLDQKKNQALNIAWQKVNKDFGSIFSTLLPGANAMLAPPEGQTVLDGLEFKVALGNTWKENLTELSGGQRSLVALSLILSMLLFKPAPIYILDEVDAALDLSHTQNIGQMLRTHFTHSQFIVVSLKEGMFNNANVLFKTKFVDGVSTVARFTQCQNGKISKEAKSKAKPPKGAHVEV
UniProt Q96KF7: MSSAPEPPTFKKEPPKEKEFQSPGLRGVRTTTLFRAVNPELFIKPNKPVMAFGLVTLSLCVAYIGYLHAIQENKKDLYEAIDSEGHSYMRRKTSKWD
UniProt Q7KZF4: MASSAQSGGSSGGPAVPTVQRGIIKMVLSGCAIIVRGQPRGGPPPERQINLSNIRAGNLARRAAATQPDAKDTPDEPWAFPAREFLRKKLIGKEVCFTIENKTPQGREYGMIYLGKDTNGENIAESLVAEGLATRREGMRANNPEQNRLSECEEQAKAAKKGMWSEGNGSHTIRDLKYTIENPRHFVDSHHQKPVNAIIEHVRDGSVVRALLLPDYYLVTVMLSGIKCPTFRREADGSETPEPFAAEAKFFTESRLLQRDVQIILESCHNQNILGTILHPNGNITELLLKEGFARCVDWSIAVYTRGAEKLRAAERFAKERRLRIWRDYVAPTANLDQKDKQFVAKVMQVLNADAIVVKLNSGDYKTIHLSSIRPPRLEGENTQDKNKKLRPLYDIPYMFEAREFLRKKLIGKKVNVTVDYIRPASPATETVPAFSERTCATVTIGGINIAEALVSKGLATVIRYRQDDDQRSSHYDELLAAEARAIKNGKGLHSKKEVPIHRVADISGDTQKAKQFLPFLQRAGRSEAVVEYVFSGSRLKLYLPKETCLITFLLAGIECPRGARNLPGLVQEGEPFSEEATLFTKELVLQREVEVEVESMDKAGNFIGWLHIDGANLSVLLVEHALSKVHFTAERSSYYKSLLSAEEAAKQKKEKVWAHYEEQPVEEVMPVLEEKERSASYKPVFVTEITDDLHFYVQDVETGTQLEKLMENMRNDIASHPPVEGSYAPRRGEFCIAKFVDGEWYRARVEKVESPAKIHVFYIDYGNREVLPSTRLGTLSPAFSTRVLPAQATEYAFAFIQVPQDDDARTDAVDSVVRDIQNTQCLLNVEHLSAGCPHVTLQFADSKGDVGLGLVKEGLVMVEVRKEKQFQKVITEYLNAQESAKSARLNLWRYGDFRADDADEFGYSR
UniProt P08621, whole entry, looked up: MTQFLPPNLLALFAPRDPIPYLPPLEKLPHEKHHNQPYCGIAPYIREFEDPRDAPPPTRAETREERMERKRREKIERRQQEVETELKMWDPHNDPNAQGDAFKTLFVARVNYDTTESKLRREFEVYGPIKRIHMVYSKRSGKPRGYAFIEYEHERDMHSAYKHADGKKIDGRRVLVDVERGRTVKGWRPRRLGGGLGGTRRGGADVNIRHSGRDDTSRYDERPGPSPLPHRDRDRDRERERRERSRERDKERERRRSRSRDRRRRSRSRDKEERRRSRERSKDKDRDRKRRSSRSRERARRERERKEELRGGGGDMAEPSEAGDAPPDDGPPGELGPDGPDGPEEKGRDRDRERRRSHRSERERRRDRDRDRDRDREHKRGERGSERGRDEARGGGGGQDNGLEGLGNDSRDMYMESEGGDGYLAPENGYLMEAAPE
UniProt P52788: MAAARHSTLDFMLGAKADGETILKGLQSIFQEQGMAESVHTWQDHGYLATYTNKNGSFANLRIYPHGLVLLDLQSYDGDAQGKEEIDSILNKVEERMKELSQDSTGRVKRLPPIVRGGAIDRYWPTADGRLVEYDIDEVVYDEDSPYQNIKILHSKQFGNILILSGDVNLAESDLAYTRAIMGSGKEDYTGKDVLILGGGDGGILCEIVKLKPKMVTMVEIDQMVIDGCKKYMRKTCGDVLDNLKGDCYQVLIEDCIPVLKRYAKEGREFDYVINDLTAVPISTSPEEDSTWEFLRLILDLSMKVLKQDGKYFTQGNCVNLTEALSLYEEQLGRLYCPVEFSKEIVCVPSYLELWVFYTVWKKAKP
UniProt P09234, whole entry, looked up: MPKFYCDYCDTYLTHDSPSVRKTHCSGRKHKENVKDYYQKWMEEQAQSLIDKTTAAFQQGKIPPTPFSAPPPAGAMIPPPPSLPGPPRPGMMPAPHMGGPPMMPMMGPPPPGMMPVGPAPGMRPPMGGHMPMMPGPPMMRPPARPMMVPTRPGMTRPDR

Experiments:
Assay in all cases: log2 fold change, soluble protein after heating vs DMSO (PISA); higher = thermal stabilisation; K562 cells, 10 uM, 30 min; active = over 0.2 and 3.5 SD of the protein, either way, in both replicates (recomputed)
[1] = compound: CC[C@@H]1C(=O)N(C)c2cnc(Nc3ccc(C(=O)NC4CCN(C)CC4)cc3OC)nc2N1C1CCCC1
In short: (§1)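 For each measurement, 10 μM compound was applied for 30 min to K562 cells at 2×10^6 cells/mL. Aliquots were heated for 3 min across 48°C-58°C, pooled, and extracted in PBS with 0.5% NP-40 at 4°C; the supernatant after 21,000xg for 90 min was soluble protein. This was quantified by TMTpro 16plex LC-MS/MS with channel sums equalised, and thermal stability was reported relative to control samples from duplicates, on a log2 fold-change scale.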

volasertib = compound: CC[C@@H]1C(=O)N(C)c2cnc(Nc3ccc(C(=O)N[C@H]4CC[C@H](N5CCN(CC6CC6)CC5)CC4)cc3OC)nc2N1C(C)C [volasertib]
In short: as §1

[2] = compound: CC[C@H](C)N1C=C(C2=C(C=C(C=C21)C3=CN=C(C=C3)N4CCNCC4)C(=O)NCC5=C(C=C(NC5=O)C)C)C
In short: as §1

epoxomicin = compound: CC[C@H](C)[C@@H](C(=O)N[C@@H]([C@@H](C)O)C(=O)N[C@@H](CC(C)C)C(=O)[C@]1(CO1)C)NC(=O)[C@H]([C@@H](C)CC)N(C)C(=O)C [epoxomicin]
In short: as §1

[3] = compound: CCn1cc(-c2ccnc3[nH]c(-c4cccc(CN(C)C)c4)cc23)c(-c2ccc(NC(=O)N(C)C)cc2)n1
In short: as §1

[4] = compound: CN(C)CC(=O)Nc1ccc2[nH]c(=O)c3ccccc3c2c1
In short: as §1

[5] = compound: CN1C2=C(C3=C1C(=O)N(N=C3)CC4=CC(=CC=C4)N)SC(=C2)S(=O)C
In short: as §1

[6] = compound: CN1CCC(CNc2ccc3ncc(-c4cccc(OC(F)(F)F)c4)n3n2)CC1
In short: as §1

[7] = compound: CCn1c(C(=O)N(C2CC2)C2CC2)cc2c3c(ncn3C)c(Nc3cc(C)n(C)n3)nc21
In short: as §1

rosiglitazone = compound: CN(CCOC1=CC=C(C=C1)C[C@H]2C(=O)NC(=O)S2)C3=CC=CC=N3 (racemic) [rosiglitazone]
In short: as §1

Measured: log2 fold change

SMG1 (UniProt Q96Q15)
active: volasertib -0.391
inactive: [1] -0.137 | [2] 0.158 | epoxomicin 0.024 | [3] 0.05 | [4] 0.046 | [5] 0.129 | [6] -0.02

SMC4 (UniProt Q9NTJ3)
inactive: [1] -0.076 | volasertib -0.181 | [2] 0.063 | epoxomicin -0.008 | [7] -0.013 | [3] -0.005 | [4] 0.017 | rosiglitazone 0.021 | [5] 0.037 | [6] -0.054

SP6 (UniProt Q3SY56)
inactive: [1] -0.015 | volasertib 0.195 | [2] 0.054 | epoxomicin 0.096 | [7] -0.113 | [4] -0.054 | rosiglitazone -0.054 | [5] -0.153

SNRPF (UniProt P62306)
inactive: [1] 0.08 | volasertib 0.022 | [2] -0.022 | epoxomicin 0.071 | [7] 0.022 | [3] -0.007 | [4] -0.075 | rosiglitazone -0.054 | [5] 0.059 | [6] 0.094

SNRPD1 (UniProt P62314)
inactive: [1] 0.148 | volasertib 0.154 | [2] -0.047 | epoxomicin -0.11 | [7] -0.004 | [3] 0.006 | [4] -0.072 | rosiglitazone -0.043 | [5] 0.047 | [6] 0.01

SMC6 isoform 2 (UniProt Q96SB8)
inactive: [1] 0.106 | volasertib 0.138 | [2] 0.02 | epoxomicin 0.007 | [7] -0.027 | [3] 0 | [4] 0.002 | rosiglitazone 0.025 | [5] 0.038 | [6] 0.117

SMIM4 (UniProt Q8WVI0)
inactive: [1] 0.024 | volasertib -0.261 | [2] 0.029 | epoxomicin -0.125 | [7] 0.024 | [4] 0.018 | rosiglitazone 0.015 | [5] -0.053

SMAD4 (UniProt Q13485)
inactive: [1] -0.012 | volasertib -0.101 | [2] 0.048 | epoxomicin -0.005 | [7] 0.005 | [3] -0.008 | [4] 0.015 | rosiglitazone 0.028 | [5] -0.054 | [6] 0.019

SMARCC1 (UniProt Q92922)
inactive: [1] -0.111 | volasertib -0.148 | [2] -0.12 | epoxomicin 0.03 | [7] -0.124 | [3] 0.001 | [4] 0.098 | rosiglitazone 0.062 | [5] 0.164 | [6] 0.089

SNRPE (UniProt P62304)
inactive: [1] 0.135 | volasertib 0.086 | [2] -0.026 | epoxomicin -0.088 | [7] -0.013 | [3] 0.086 | [4] -0.038 | rosiglitazone -0.018 | [5] -0.01 | [6] 0.129

SPAG7 (UniProt O75391)
inactive: [1] 0.027 | volasertib 0.017 | [2] -0.008 | epoxomicin 0.046 | [7] -0.024 | [3] -0.041 | [4] -0.069 | rosiglitazone 0.009 | [5] -0.005 | [6] -0.002

SNTB2 (UniProt Q13425)
inactive: [1] 0.111 | volasertib -0.258 | [2] 0.021 | epoxomicin -0.193 | [3] -0.055 | [4] 0.079 | rosiglitazone -0.028 | [5] 0.013 | [6] -0.121

SNX14 (UniProt Q9Y5W7)
inactive: [1] -0.01 | volasertib 0.007 | [2] 0.054 | epoxomicin 0.023 | [7] 0.045 | [4] -0.018 | rosiglitazone -0.068 | [5] 0.214

SMG8 isoform 2 (UniProt Q8ND04)
inactive: [1] -0.101 | volasertib -0.317 | [2] 0.05 | epoxomicin 0 | [7] -0.053 | [3] -0.023 | [4] -0.021 | rosiglitazone -0.059 | [5] 0.197 | [6] -0.09

SMC3 (UniProt Q9UQE7)
inactive: [1] -0.023 | volasertib -0.084 | [2] 0.016 | epoxomicin 0.037 | [7] -0.01 | [3] 0.001 | [4] -0.017 | rosiglitazone 0.014 | [5] -0.021 | [6] -0.074

SMC2 (UniProt O95347)
inactive: [1] -0.057 | volasertib -0.183 | [2] 0.064 | epoxomicin 0.022 | [7] -0.023 | [3] -0.038 | [4] 0.003 | rosiglitazone 0.021 | [5] -0.008 | [6] -0.053

SNRPB isoform 3 (UniProt P14678)
inactive: [1] 0.158 | volasertib 0.182 | [2] -0.078 | epoxomicin -0.08 | [7] -0.015 | [3] 0.023 | [4] -0.022 | rosiglitazone -0.061 | [5] 0.071 | [6] 0.28

SMIM8 (UniProt Q96KF7)
inactive: [1] 0.076 | volasertib 0.013 | [2] -0.037 | epoxomicin 0.022 | [7] -0.032 | [3] -0.055 | [4] -0.049 | rosiglitazone 0.021 | [5] 0.01 | [6] 0

SND1 (UniProt Q7KZF4)
inactive: [1] 0.19 | volasertib -0.042 | [2] 0.083 | epoxomicin -0.396 | [7] 0.005 | [3] 0.29 | [4] 0.001 | rosiglitazone -0.088 | [5] 0.495 | [6] 0.128

SNRNP70 (UniProt P08621)
inactive: [1] 0.328 | volasertib 0.213 | [2] 0.011 | epoxomicin -0.198 | [7] -0.014 | [3] 0.208 | [4] -0.109 | rosiglitazone -0.159 | [5] 0.185 | [6] 0.331

SLCO4A1 (UniProt Q96BD0)
inactive: [1] 0.098 | volasertib 0.064 | [2] -0.213 | epoxomicin 0.044 | [7] 0.114 | [3] -0.191 | [4] 0.004 | rosiglitazone -0.293 | [6] 0.059

SMS (UniProt P52788)
inactive: [1] 0.008 | volasertib -0.049 | [2] -0.048 | epoxomicin 0.001 | [7] 0.009 | [3] 0.006 | [4] -0.02 | rosiglitazone 0 | [5] -0.092 | [6] -0.031

SLC9A8 isoform 2 (UniProt Q9Y2E8)
inactive: [1] 0.172 | volasertib -0.122 | [2] -0.051 | epoxomicin -0.017 | [7] 0.022 | [4] 0.009 | rosiglitazone -0.007 | [5] -0.112

SNRPC (UniProt P09234)
inactive: [1] 0.079 | volasertib 0.062 | [2] -0.09 | epoxomicin 0.023 | [7] 0.044 | [3] 0.042 | [4] -0.067 | rosiglitazone -0.037 | [5] 0.03 | [6] 0.11

SORBS1 isoform 12 (UniProt Q9BX66)
inactive: [1] -0.032 | volasertib -0.103 | [2] -0.035 | epoxomicin -0.009 | [7] -0.006 | [3] 0.013 | [4] -0.023 | rosiglitazone 0.039 | [5] -0.046 | [6] 0.069

7 neighbouring records out of the list so far:
SMC2 (UniProt O95347)
inactive: [1] -0.057 | volasertib -0.183 | [2] 0.064 | epoxomicin 0.022 | [7] -0.023 | [3] -0.038 | [4] 0.003 | rosiglitazone 0.021 | [5] -0.008 | [6] -0.053

SNRPB isoform 3 (UniProt P14678)
inactive: [1] 0.158 | volasertib 0.182 | [2] -0.078 | epoxomicin -0.08 | [7] -0.015 | [3] 0.023 | [4] -0.022 | rosiglitazone -0.061 | [5] 0.071 | [6] 0.28

SMIM8 (UniProt Q96KF7)
inactive: [1] 0.076 | volasertib 0.013 | [2] -0.037 | epoxomicin 0.022 | [7] -0.032 | [3] -0.055 | [4] -0.049 | rosiglitazone 0.021 | [5] 0.01 | [6] 0

SND1 (UniProt Q7KZF4)
inactive: [1] 0.19 | volasertib -0.042 | [2] 0.083 | epoxomicin -0.396 | [7] 0.005 | [3] 0.29 | [4] 0.001 | rosiglitazone -0.088 | [5] 0.495 | [6] 0.128

SNRNP70 (UniProt P08621)
inactive: [1] 0.328 | volasertib 0.213 | [2] 0.011 | epoxomicin -0.198 | [7] -0.014 | [3] 0.208 | [4] -0.109 | rosiglitazone -0.159 | [5] 0.185 | [6] 0.331

SLCO4A1 (UniProt Q96BD0)
inactive: [1] 0.098 | volasertib 0.064 | [2] -0.213 | epoxomicin 0.044 | [7] 0.114 | [3] -0.191 | [4] 0.004 | rosiglitazone -0.293 | [6] 0.059

SMS (UniProt P52788)
inactive: [1] 0.008 | volasertib -0.049 | [2] -0.048 | epoxomicin 0.001 | [7] 0.009 | [3] 0.006 | [4] -0.02 | rosiglitazone 0 | [5] -0.092 | [6] -0.031

Next part

SPA17 (UniProt Q15506)
inactive: [1] 0.024 | volasertib 0.043 | [2] -0.005 | epoxomicin 0.155 | [7] 0.04 | [3] 0.025 | [4] -0.043 | rosiglitazone -0.038 | [5] 0.054 | [6] 0.059

SMNDC1 (UniProt O75940)
inactive: [1] 0.111 | volasertib 0.073 | [2] -0.046 | epoxomicin 0.012 | [7] 0.001 | [3] 0.049 | [4] -0.014 | rosiglitazone -0.025 | [5] -0.018 | [6] 0.077

SNCG (UniProt O76070)
inactive: [1] 0.026 | volasertib 0.102 | [2] -0.021 | epoxomicin 0.015 | [7] 0.001 | [3] -0.023 | [4] -0.003 | rosiglitazone 0.007 | [5] -0.058 | [6] 0.019

SMCR8 (UniProt Q8TEV9)
inactive: [1] -0.028 | volasertib -0.039 | [2] 0.009 | epoxomicin 0.021 | [7] -0.017 | [3] -0.035 | rosiglitazone 0.033 | [5] -0.093 | [6] -0.097

SNRPA (UniProt P09012)
inactive: [1] 0.234 | volasertib 0.202 | [2] -0.091 | epoxomicin -0.118 | [7] 0.029 | [3] 0.135 | [4] -0.037 | rosiglitazone -0.117 | [5] 0.069 | [6] 0.158
